Assay results from the supplement of paper PMC11098740.
± gives the standard deviation of the averaged measurements. The list shows a part of the results. Single values are uncertain, as repeats are few or missing.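 Test system: a mixed pool of 41 HAP1 clones in which 61 cancer-associated proteins carry fluorescent tags inserted into introns, and each clone is identified from its image pattern. Read-outs are compared with DMSO-treated control wells. The BRD4 degrader dBET6 served as the positive control.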

These compounds were tested against BRD4 (intron 10 mScarlet tag, HAP1) (UniProt O60885) (assay: BRD4 median nuclear fluorescence intensity change vs DMSO (log2 fold change); higher = more BRD4 protein). Details: 6 h.

Compound | BRD4 median nuclear fluorescence intensity change (log2)
Oc1ncnc2[nH]ncc12 [allopurinol] (10 µM) | 0.0389
CC(=O)O[C@H]1C[C@@H]2CC[C@@H]3[C@H](CC[C@@]4(C)[C@H]3C[C@H]([N+]3(C)CCCCC3)[C@@H]4OC(C)=O)[C@@]2(C)C[C@@H]1N1CCCCC1 [vecuronium bromide] (10.00071805 µM) | 0.0624
CC(=O)O[C@@]12CO[C@@H]1C[C@H](O)[C@@]1(C)C(=O)[C@H](O)C3=C(C)[C@@H](OC(=O)[C@H](O)[C@@H](NC(=O)OC(C)(C)C)c4ccccc4)C[C@@](O)([C@@H](OC(=O)c4ccccc4)[C@H]21)C3(C)C [docetaxel] (0.00463667 µM) | 0.0104
O=C(O)P(=O)(O)O [foscarnet] (10 µM) | 0.0245
Cc1[nH]nc2c1C(c1cc(CO)cc(-c3ccccc3)c1)(C(C)C)C(C#N)=C(N)O2 (stereo not given) [shin1] (10 µM) | -0.0689
CNC[C@H](O)c1ccc(O)c(O)c1 [epinephrine] (10 µM) | 0.174
CCCc1nc(C(C)(C)O)c(C(=O)OCc2oc(=O)oc2C)n1Cc1ccc(-c2ccccc2-c2nnn[nH]2)cc1 [olmesartan medoxomil] (10.00003285 µM) | 0.054
CCCCCCCCCCC[C@@H](C[C@@H]1OC(=O)[C@H]1CCCCCC)OC(=O)[C@H](CC(C)C)NC=O [orlistat] (10 µM) | 0.076
COC(=O)C1=C(C)NC(C)=C(C(=O)OCC(C)C)C1c1ccccc1[N+](=O)[O-] (stereo not given) [nisoldipine] (9.99911 µM) | 0.0298
CN(CCOc1ccc(CC2SC(=O)NC2=O)cc1)c1ccccn1 (stereo not given) [rosiglitazone] (10.0005 µM) | 0.0307
CO[C@H]1C[C@@H]2CC[C@@H](C)[C@@](O)(O2)C(=O)C(=O)N2CCCC[C@H]2C(=O)O[C@H]([C@H](C)C[C@@H]2CC[C@@H](OCCO)[C@H](OC)C2)CC(=O)[C@H](C)/C=C(\C)[C@@H](O)[C@@H](OC)C(=O)[C@H](C)C[C@H](C)/C=C/C=C/C=C/1C [everolimus] (20 µM) | -0.00641
COc1cc2nc(N3CCN(C(=O)C4CCCO4)CC3)nc(N)c2cc1OC (stereo not given) [terazosin] (10 µM) | 0.0133
Cc1ncsc1-c1ccc(CNC(=O)[C@@H]2C[C@@H](O)CN2C(=O)[C@@H](NC(=O)C2(F)CC2)C(C)(C)C)c(OCCOc2ccc(CN3CCN(c4cc(-c5ccccc5O)nnc4N)CC3)cc2)c1 [acbi1] (0.1 µM) | 0.0431
Cc1cn(-c2cc(NC(=O)c3ccc(C)c(Nc4nccc(-c5cccnc5)n4)c3)cc(C(F)(F)F)c2)cn1 [nilotinib] (20 µM) | 0.197
O=[N+]([O-])c1cnc(CO)n1CCO [hydroxymetronidazole] (10 µM) | -0.00384
CC(=O)Oc1ccccc1C(=O)Nc1ncc([N+](=O)[O-])s1 [nitazoxanide] (10 µM) | -0.0748
CCN(CC)C(=S)S [sodium diethyldithiocarbamate trihydrate] (10 µM) | -0.00699
CC1(C)C[C@@H]1C(=O)N/C(=C\CCCCSC[C@H](N)C(=O)O)C(=O)O [cilastatin] (10 µM) | -0.0309
OC(CCCN1CCCCC1)(c1ccccc1)c1ccccc1 [diphenidol] (9.99988 µM) | 0.0706
CCC1(c2ccccc2)C(=O)NCNC1=O [primidone] (10 µM) | -0.023

Compound | BRD4 median nuclear fluorescence intensity change (log2)
COCCCC/C(=N\OCCN)c1ccc(C(F)(F)F)cc1 [fluvoxamine] (9.99978 µM) | 0.00516
O=C1CCCC(=O)C1C(=O)c1ccc(C(F)(F)F)cc1[N+](=O)[O-] [nitisinone] (10 µM) | 0.0334
CNS(=O)(=O)Cc1ccc2[nH]cc(CCN(C)C)c2c1 [sumatriptan] (10.0004 µM) | 0.0397
O=C1CCc2ccc(OCCCCN3CCN(c4cccc(Cl)c4Cl)CC3)cc2N1 [aripiprazole] (10.0009 µM) | 0.00696
OC(CCN1CCCCC1)(c1ccccc1)C1CCCCC1 (stereo not given) [trihexyphenidyl] (10.00006277 µM) | 0.0534
Cc1cc(C)cc(OCC2CNC(=O)O2)c1 (stereo not given) [metaxalone] (10 µM) | 0.0772
CC(C)CN(C[C@@H](O)[C@H](Cc1ccccc1)NC(=O)O[C@H]1CCOC1)S(=O)(=O)c1ccc(N)cc1 [amprenavir] (10 µM) | 0.0923
CN(C)C(=N)NC(=N)N [metformin] (10 µM) | 0.0688
CCCCCCCCCCCCCCCCCCOP(=O)([O-])OC1CC[N+](C)(C)CC1 [perifosine] (20 µM) | 0.117
O=C(/C=C/c1cccc(S(=O)(=O)Nc2ccccc2)c1)NO [belinostat] (20 µM) | -0.0325
CCCN(CCC)S(=O)(=O)c1ccc(C(=O)O)cc1 [probenecid] (10 µM) | -0.0129
CCC(CC)O[C@@H]1C=C(C(=O)O)C[C@H](N)[C@H]1NC(C)=O [oseltamivir acid] (10 µM) | 0.146
Clc1ccc2c(c1)C(N1CCNCC1)=Nc1ccccc1O2 [amoxapine] (10.00000745 µM) | 0.147
CCCCC1C(=O)N(c2ccccc2)N(c2ccc(O)cc2)C1=O (stereo not given) [oxyphenbutazone] (10 µM) | 0.0566
Cc1oncc1C(=O)Nc1ccc(C(F)(F)F)cc1 [leflunomide] (10 µM) | 0.135
C=C(c1ccc(C(=O)O)cc1)c1cc2c(cc1C)C(C)(C)CCC2(C)C [bexarotene] (20 µM) | 0.16
COc1ccc(C[C@@H]2c3cc(OC)c(OC)cc3CC[N@+]2(C)CCC(=O)OCCCCCOC(=O)CC[N@@+]2(C)CCc3cc(OC)c(OC)cc3[C@H]2Cc2ccc(OC)c(OC)c2)cc1OC [cisatracurium besylate] (10 µM) | 0.083
O=C1c2cccc3c2[C@H](CCC3)CN1[C@@H]1CN2CCC1CC2 [palonosetron] (10 µM) | 0.0501
NCCC(O)(P(=O)(O)O)P(=O)(O)O [pamidronic acid] (10 µM) | -0.0135
C/C=C1\NC(=O)[C@H]2CSSCC/C=C/[C@H](CC(=O)N[C@H](C(C)C)C(=O)N2)OC(=O)[C@H](C(C)C)NC1=O [romidepsin] (10 µM) | 0.00917 ± 0.041

Shown as tab-separated lines: 10 of the compounds above
Compound	BRD4 median nuclear fluorescence intensity change (log2)
COCCCC/C(=N\OCCN)c1ccc(C(F)(F)F)cc1 [fluvoxamine] (9.99978 µM)	0.00516
O=C1CCCC(=O)C1C(=O)c1ccc(C(F)(F)F)cc1[N+](=O)[O-] [nitisinone] (10 µM)	0.0334
CNS(=O)(=O)Cc1ccc2[nH]cc(CCN(C)C)c2c1 [sumatriptan] (10.0004 µM)	0.0397
O=C1CCc2ccc(OCCCCN3CCN(c4cccc(Cl)c4Cl)CC3)cc2N1 [aripiprazole] (10.0009 µM)	0.00696
OC(CCN1CCCCC1)(c1ccccc1)C1CCCCC1 (stereo not given) [trihexyphenidyl] (10.00006277 µM)	0.0534
Cc1cc(C)cc(OCC2CNC(=O)O2)c1 (stereo not given) [metaxalone] (10 µM)	0.0772
CC(C)CN(C[C@@H](O)[C@H](Cc1ccccc1)NC(=O)O[C@H]1CCOC1)S(=O)(=O)c1ccc(N)cc1 [amprenavir] (10 µM)	0.0923
CN(C)C(=N)NC(=N)N [metformin] (10 µM)	0.0688
CCCCCCCCCCCCCCCCCCOP(=O)([O-])OC1CC[N+](C)(C)CC1 [perifosine] (20 µM)	0.117
O=C(/C=C/c1cccc(S(=O)(=O)Nc2ccccc2)c1)NO [belinostat] (20 µM)	-0.0325
